# The other results are listed elsewhere or left out.
# Protein sequences, listed by entry. Tags and fused reporters are not part of them. Lines headed by an entry give the natural chain unless they say otherwise; changes in a name come on top.
# UniProt Q92621: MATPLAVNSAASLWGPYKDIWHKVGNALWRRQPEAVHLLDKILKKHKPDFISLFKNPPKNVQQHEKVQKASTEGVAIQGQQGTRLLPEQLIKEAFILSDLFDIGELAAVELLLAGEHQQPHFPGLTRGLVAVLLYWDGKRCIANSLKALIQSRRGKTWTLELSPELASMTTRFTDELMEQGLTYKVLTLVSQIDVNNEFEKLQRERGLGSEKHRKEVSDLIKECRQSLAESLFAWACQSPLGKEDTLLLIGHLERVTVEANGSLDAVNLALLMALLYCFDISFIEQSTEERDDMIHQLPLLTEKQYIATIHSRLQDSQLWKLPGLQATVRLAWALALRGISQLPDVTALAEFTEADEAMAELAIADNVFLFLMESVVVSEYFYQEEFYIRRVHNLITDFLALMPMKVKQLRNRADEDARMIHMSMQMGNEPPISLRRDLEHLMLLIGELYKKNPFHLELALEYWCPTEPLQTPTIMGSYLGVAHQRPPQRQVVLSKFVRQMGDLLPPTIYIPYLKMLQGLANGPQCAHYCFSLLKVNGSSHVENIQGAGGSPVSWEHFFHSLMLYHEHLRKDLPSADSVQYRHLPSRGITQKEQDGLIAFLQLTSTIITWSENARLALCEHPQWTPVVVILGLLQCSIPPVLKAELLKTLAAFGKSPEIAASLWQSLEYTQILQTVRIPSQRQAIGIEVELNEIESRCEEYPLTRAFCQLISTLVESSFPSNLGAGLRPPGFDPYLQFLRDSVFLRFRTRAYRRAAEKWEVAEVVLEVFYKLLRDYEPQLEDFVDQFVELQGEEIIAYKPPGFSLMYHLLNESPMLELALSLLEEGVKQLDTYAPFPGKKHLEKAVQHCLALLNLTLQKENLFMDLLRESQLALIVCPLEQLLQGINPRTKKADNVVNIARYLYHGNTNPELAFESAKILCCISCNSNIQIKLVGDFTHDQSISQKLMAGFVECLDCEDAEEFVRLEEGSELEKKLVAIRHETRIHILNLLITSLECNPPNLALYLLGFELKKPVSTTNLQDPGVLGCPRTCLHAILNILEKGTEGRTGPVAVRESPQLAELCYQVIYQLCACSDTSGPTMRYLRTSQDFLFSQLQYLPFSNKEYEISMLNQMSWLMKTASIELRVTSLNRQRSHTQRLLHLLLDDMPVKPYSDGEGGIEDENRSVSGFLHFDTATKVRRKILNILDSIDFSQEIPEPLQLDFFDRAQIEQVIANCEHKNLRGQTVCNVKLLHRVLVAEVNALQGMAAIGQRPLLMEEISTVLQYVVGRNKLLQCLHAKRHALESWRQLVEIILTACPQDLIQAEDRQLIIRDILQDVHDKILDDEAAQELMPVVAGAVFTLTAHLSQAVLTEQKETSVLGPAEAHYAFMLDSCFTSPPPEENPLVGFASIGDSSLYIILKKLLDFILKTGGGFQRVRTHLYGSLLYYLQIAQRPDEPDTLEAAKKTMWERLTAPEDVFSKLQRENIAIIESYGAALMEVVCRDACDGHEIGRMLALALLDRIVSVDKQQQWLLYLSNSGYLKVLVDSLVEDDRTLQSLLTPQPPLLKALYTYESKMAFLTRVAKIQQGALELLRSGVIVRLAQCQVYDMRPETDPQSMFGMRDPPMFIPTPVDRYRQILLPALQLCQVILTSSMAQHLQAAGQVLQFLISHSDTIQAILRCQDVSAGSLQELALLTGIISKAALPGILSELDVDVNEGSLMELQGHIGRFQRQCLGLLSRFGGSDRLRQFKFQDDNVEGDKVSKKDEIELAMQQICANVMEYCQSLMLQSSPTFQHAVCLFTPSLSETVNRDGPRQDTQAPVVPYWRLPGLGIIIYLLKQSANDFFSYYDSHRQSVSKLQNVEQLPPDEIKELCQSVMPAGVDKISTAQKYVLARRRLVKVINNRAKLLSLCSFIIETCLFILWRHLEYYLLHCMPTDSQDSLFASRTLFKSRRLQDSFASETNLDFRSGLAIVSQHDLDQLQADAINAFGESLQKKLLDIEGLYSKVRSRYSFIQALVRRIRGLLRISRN
# UniProt Q99497, whole entry, looked up: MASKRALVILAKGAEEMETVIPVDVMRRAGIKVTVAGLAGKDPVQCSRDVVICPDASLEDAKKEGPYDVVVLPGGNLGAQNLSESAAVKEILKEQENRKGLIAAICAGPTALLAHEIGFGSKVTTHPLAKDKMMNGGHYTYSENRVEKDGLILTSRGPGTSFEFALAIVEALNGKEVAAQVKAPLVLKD
# UniProt Q7Z3B4: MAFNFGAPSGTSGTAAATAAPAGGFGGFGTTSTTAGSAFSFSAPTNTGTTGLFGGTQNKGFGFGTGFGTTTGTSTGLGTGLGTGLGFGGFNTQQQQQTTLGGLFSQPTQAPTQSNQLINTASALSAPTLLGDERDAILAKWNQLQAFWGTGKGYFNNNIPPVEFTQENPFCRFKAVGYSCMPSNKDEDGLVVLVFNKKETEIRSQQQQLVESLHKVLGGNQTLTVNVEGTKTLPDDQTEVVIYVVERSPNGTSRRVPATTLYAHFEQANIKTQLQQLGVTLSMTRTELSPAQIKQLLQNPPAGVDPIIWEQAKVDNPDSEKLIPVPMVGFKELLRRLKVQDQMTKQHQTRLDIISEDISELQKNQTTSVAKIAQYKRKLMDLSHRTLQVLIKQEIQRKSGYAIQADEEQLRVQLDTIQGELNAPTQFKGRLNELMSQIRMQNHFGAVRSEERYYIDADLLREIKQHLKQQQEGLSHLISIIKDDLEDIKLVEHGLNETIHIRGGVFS
# UniProt Q96E52: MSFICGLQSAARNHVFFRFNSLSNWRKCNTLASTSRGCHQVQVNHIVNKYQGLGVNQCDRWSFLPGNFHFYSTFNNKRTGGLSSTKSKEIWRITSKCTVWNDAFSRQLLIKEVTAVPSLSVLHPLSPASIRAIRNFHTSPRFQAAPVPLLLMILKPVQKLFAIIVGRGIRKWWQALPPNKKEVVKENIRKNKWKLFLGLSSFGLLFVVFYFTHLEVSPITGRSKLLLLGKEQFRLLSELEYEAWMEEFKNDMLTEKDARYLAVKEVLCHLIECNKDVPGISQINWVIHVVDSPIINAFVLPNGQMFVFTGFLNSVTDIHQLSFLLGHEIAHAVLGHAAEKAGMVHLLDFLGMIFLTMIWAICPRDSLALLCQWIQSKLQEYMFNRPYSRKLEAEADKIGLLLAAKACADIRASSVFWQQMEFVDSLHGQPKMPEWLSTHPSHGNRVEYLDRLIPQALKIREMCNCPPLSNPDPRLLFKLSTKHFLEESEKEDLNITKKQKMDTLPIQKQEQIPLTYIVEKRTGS
# UniProt Q6N063: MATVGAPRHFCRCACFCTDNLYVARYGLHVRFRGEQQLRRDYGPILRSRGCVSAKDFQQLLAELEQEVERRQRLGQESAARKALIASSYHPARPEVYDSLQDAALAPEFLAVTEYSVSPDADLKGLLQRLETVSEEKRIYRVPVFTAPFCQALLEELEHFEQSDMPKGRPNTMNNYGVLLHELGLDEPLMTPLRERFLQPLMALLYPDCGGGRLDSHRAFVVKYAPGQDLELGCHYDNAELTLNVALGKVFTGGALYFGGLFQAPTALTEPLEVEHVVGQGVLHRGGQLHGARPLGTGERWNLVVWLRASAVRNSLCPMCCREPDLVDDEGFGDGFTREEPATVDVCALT
# UniProt Q9NP74: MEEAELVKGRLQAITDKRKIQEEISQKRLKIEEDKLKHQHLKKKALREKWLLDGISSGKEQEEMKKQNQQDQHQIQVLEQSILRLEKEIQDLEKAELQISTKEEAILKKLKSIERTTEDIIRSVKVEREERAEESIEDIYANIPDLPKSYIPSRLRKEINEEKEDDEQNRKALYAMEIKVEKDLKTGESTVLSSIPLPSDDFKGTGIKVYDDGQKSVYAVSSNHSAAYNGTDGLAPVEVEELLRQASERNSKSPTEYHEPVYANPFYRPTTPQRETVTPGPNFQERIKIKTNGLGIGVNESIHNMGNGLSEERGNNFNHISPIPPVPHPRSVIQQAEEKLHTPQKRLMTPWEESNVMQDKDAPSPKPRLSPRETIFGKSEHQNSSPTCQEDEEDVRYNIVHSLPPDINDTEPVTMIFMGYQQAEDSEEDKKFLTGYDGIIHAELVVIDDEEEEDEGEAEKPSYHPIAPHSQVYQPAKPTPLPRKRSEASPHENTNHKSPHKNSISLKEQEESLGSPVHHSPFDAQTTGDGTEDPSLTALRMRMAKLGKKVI
# UniProt P00480: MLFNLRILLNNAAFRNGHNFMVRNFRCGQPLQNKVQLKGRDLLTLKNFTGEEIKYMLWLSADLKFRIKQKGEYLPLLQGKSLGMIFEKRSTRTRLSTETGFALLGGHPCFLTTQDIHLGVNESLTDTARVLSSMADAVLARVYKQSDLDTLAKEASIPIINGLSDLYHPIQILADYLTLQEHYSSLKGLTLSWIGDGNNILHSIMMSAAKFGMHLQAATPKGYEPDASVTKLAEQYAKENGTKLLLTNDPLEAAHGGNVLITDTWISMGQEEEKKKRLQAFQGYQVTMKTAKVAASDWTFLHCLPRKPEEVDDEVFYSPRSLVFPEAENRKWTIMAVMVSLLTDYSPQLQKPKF
# UniProt O95747, whole entry, looked up: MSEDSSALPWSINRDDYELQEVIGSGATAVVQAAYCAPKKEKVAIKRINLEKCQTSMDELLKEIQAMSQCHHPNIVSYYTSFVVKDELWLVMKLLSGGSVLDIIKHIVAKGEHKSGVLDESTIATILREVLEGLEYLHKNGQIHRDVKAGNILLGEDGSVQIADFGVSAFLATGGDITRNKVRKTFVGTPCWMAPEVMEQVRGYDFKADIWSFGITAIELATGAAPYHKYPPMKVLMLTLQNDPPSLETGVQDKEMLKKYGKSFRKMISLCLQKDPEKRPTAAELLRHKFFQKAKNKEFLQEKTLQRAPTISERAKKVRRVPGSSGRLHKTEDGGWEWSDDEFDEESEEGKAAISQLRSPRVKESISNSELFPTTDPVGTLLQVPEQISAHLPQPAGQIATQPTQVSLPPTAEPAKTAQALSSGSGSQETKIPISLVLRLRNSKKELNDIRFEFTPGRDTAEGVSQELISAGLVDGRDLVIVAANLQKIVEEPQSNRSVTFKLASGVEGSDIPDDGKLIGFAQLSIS
# UniProt Q9NPF4: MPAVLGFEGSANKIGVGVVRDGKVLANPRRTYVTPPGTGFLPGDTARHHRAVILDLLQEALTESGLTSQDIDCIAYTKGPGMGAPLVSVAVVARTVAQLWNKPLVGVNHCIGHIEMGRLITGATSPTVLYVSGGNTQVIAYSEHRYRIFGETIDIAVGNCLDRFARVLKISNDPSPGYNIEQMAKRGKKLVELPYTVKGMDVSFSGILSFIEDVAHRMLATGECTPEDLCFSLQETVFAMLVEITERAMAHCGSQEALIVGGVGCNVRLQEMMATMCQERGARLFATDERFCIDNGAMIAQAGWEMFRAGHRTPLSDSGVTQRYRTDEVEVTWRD
# UniProt Q92882: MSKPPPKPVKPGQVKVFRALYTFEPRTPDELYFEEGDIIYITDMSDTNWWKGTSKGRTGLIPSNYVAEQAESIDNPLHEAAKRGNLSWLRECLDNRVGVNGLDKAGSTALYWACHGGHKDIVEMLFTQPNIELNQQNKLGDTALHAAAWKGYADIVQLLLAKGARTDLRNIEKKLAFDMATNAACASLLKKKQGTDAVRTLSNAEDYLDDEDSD
# UniProt O15504: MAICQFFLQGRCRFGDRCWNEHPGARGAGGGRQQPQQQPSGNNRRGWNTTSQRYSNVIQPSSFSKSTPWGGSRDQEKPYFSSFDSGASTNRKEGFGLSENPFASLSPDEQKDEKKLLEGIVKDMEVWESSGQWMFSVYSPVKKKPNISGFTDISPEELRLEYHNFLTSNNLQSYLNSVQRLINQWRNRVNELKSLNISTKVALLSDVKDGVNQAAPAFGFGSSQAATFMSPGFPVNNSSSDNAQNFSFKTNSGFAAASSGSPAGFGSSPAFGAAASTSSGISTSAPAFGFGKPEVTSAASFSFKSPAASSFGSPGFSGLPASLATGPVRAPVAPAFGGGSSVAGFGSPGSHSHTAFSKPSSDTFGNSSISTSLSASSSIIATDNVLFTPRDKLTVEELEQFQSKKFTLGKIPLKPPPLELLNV
# UniProt P07237: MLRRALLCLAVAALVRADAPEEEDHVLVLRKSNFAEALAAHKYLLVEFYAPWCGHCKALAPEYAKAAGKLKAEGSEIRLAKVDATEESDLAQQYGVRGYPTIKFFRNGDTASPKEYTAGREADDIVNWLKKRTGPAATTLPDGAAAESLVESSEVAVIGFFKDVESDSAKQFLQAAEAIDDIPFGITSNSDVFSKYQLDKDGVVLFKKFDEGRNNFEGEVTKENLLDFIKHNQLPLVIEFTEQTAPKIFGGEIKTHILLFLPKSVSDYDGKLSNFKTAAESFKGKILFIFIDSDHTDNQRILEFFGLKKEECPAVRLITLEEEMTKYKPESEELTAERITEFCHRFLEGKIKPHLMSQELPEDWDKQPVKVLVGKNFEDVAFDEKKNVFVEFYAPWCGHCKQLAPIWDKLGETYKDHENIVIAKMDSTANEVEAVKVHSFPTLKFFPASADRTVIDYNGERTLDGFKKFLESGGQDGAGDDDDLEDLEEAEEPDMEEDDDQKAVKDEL
# What was measured:
# Assay in all cases: log2 fold change, soluble protein after heating vs DMSO (PISA); higher = thermal stabilisation; K562 lysate, 10 uM; active = over 0.2 and 3.5 SD of the protein, either way, in both replicates (recomputed)
# [1] = compound: Cc1cn(-c2cc(NC(=O)c3ccc(C)c(Nc4nccc(-c5cccnc5)n4)c3)cc(C(F)(F)F)c2)cn1 [nilotinib]
# How it was run: (§1)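 Log-two fold change in thermal stability relative to solvent controls is reported from duplicates. For each sample, crude K562 extract from dounce-homogenised pellets in PBS pH 7.4 with 1 mM MgCl2, at 1 mg/mL protein, was treated with 10 μM compound for 30 min. Aliquots heated for 3 min across 48°C-58°C were pooled, brought to 0.5% NP-40 at 4°C and cleared at 21,000xg for 90 min. The supernatant was quantified by TMTpro 16plex LC-MS/MS with channel sums equalised.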
# [2] = compound: Cc1nc(Nc2n[nH]c3c2CN(C(=O)N[C@H](CN(C)C)c2ccccc2)C3(C)C)c2sccc2n1
# How it was run: as §1
# [3] = compound: Cc1nc(Nc2ncc(C(=O)Nc3c(C)cccc3Cl)s2)cc(N2CCN(CCO)CC2)n1 [dasatinib]
# How it was run: as §1
# [4] = compound: Cc1ncc(-c2ccnc(Nc3ccc(S(C)(=O)=O)cc3)n2)n1C(C)C
# How it was run: as §1
# [5] = compound: Cn1cc(-c2ccc3c(c2)CCN3C(=O)Cc2cccc(C(F)(F)F)c2)c2c(N)ncnc21
# How it was run: as §1
# [6] = compound: Cn1cc(CNCC2CCN(c3ncc(C(=O)NO)cn3)CC2)c2ccccc21 [quisinostat]
# How it was run: as §1
# [7] = compound: Cn1cncc1[C@@](N)(c1ccc(Cl)cc1)c1ccc2c(c1)c(-c1cccc(Cl)c1)cc(=O)n2C [tipifarnib]
# How it was run: as §1
# [8] = compound: NC(=O)Nc1cc(-c2cccc(F)c2)sc1C(=O)N[C@H]1CCCNC1
# How it was run: as §1
# [9] = compound: NC(=O)c1cnc(N[C@@H]2CCCC[C@@H]2N)nc1Nc1cccc(-n2nccn2)c1
# How it was run: as §1
# [10] = compound: NC1(c2ccc(-c3nc4ccn5c(=O)[nH]nc5c4cc3-c3ccccc3)cc2)CCC1
# How it was run: as §1
# [11] = compound: NCC(=O)Nc1ccc(-n2nc(C(F)(F)F)cc2-c2ccc3c(ccc4ccccc43)c2)cc1
# How it was run: as §1
# [12] = compound: O=C(CCCCCCC(=O)Nc1ccccc1)NO [vorinostat]
# How it was run: as §1
# [13] = compound: O=C(O)c1ccc2c(c1)nc(Nc1cccc(Cl)c1)c1ccncc12 [silmitasertib]
# How it was run: as §1
# [14] = compound: O=C1NC(=O)C(c2cnc3ccccn23)=C1c1cn2c3c(cc(F)cc13)CN(C(=O)N1CCCCC1)CC2
# How it was run: as §1
# [15] = compound: c1cn2cc(-c3ccc4cn[nH]c4c3)nc(Nc3ccc(N4CCOCC4)cc3)c2n1 [entospletinib]
# How it was run: as §1
Target,log2 fold change [1],log2 fold change [2],log2 fold change [3],log2 fold change [4],log2 fold change [5],log2 fold change [6],log2 fold change [7],log2 fold change [8],log2 fold change [9],log2 fold change [10],log2 fold change [11],log2 fold change [12],log2 fold change [13],log2 fold change [14],log2 fold change [15]
PAGE2B (UniProt Q5JRK9),inactive: 0.036,inactive: -0.007,inactive: 0.032,inactive: 0.062,inactive: -0.016,inactive: 0.001,inactive: 0.026,inactive: 0.041,inactive: -0.018,inactive: 0.164,inactive: 0.057,active: 0.474,inactive: -0.001,inactive: 0.02,inactive: 0.017
PAF1 (UniProt Q8N7H5),inactive: -0.025,inactive: 0.035,inactive: -0.016,inactive: 0.027,inactive: 0.027,inactive: -0.011,inactive: -0.047,inactive: 0.035,inactive: 0.01,inactive: 0.012,inactive: 0.007,inactive: -0.013,inactive: 0.004,inactive: 0.015,inactive: 0.009
NUP205 (UniProt Q92621),inactive: -0.014,inactive: 0.004,inactive: -0.04,inactive: 0.008,inactive: 0.04,inactive: -0.041,inactive: -0.027,inactive: 0.052,inactive: 0.047,inactive: -0.012,inactive: 0.003,active: -0.335,inactive: 0.037,inactive: 0.001,inactive: 0.005
PACSIN3 (UniProt Q9UKS6),inactive: -0.01,inactive: 0.026,inactive: 0.027,inactive: -0.006,inactive: 0.041,inactive: -0.016,inactive: 0,inactive: 0.032,inactive: 0.013,inactive: 0.049,inactive: -0.019,inactive: -0.134,inactive: 0.04,inactive: -0.019,inactive: -0.036
NUP62 (UniProt P37198),inactive: 0.055,inactive: -0.007,inactive: -0.014,inactive: -0.016,inactive: -0.006,inactive: 0.075,inactive: -0.065,inactive: 0.005,inactive: -0.012,inactive: 0.038,inactive: -0.024,inactive: 0.031,inactive: -0.004,inactive: 0.014,inactive: 0.021
PARK7 (UniProt Q99497),inactive: 0.043,inactive: -0.004,inactive: -0.007,inactive: 0.051,inactive: -0.008,inactive: 0.009,inactive: 0.018,inactive: -0.016,inactive: -0.008,inactive: 0.005,inactive: 0.022,inactive: 0.163,inactive: -0.01,inactive: 0.026,inactive: 0.005
NUP54 (UniProt Q7Z3B4),inactive: 0.03,inactive: -0.016,inactive: -0.041,inactive: 0.026,inactive: 0,inactive: 0.008,inactive: -0.068,inactive: 0.044,inactive: 0.002,inactive: -0.007,inactive: 0.023,inactive: 0.016,inactive: -0.009,inactive: -0.002,inactive: 0.007
OMA1 (UniProt Q96E52),inactive: 0.026,inactive: -0.024,inactive: -0.052,inactive: 0.048,inactive: 0.011,inactive: 0.004,inactive: 0.001,inactive: 0.012,inactive: -0.013,inactive: -0.031,inactive: 0.032,inactive: 0.122,inactive: 0.018,inactive: -0.008,inactive: 0.001
OCRL (UniProt Q01968),inactive: -0.095,inactive: 0.083,inactive: -0.044,inactive: -0.051,inactive: 0.053,inactive: -0.089,inactive: 0.048,inactive: -0.018,inactive: -0.012,inactive: 0.024,inactive: 0.134,active: -0.43,inactive: 0.032,inactive: 0.019,inactive: -0.032
OGFOD2 (UniProt Q6N063),inactive: -0.002,inactive: 0.005,inactive: 0.006,inactive: 0.063,inactive: 0.048,inactive: 0.031,inactive: 0.026,inactive: 0.049,inactive: -0.017,inactive: 0.049,inactive: 0.023,inactive: -0.075,inactive: 0.038,inactive: 0.022,inactive: -0.001
PARG (UniProt Q86W56),inactive: 0.006,inactive: 0.017,inactive: -0.033,inactive: 0.007,inactive: -0.004,inactive: -0.081,inactive: -0.007,inactive: 0.097,inactive: 0.006,inactive: 0.006,inactive: 0.006,active: -0.363,inactive: -0.035,inactive: 0.018,inactive: 0.006
PALMD (UniProt Q9NP74),inactive: -0.036,inactive: 0.061,inactive: 0.013,inactive: -0.037,inactive: 0.051,inactive: 0.016,inactive: -0.128,inactive: -0.013,inactive: 0,inactive: 0.084,inactive: 0.018,inactive: 0.193,inactive: 0.003,inactive: -0.009,inactive: -0.302
OTC (UniProt P00480),inactive: -0.105,inactive: -0.023,inactive: -0.347,inactive: -0.159,inactive: 0.106,inactive: -0.492,inactive: 0.054,inactive: -0.055,inactive: 0.071,inactive: -0.075,inactive: 0.097,inactive: 0.087,inactive: -0.029,inactive: -0.157,inactive: -0.028
OGA (UniProt O60502),inactive: 0.007,inactive: 0.006,inactive: 0,inactive: -0.006,inactive: 0.023,inactive: -0.006,inactive: -0.003,inactive: 0.003,inactive: 0.008,inactive: 0.002,inactive: 0.003,inactive: -0.124,inactive: -0.006,inactive: 0.013,inactive: 0.009
OXSR1 (UniProt O95747),inactive: -0.002,inactive: 0.008,inactive: -0.022,inactive: -0.023,inactive: 0.024,inactive: -0.07,inactive: 0.01,inactive: 0.049,inactive: 0.034,inactive: -0.021,inactive: -0.007,inactive: -0.173,inactive: 0.04,inactive: -0.005,inactive: 0.008
OSGEP (UniProt Q9NPF4),inactive: -0.005,inactive: 0.008,inactive: 0.002,inactive: 0.018,inactive: 0.025,inactive: -0.006,inactive: 0.026,inactive: -0.012,inactive: -0.027,inactive: 0.03,inactive: -0.001,inactive: -0.038,inactive: -0.109,inactive: 0.016,inactive: 0.002
OS9 (UniProt Q13438),inactive: -0.003,inactive: -0.017,inactive: -0.007,inactive: 0,inactive: 0.019,inactive: -0.002,inactive: -0.03,inactive: -0.009,inactive: 0.007,inactive: -0.011,inactive: 0.03,inactive: 0.092,inactive: -0.001,inactive: 0.013,inactive: -0.037
OPA3 (UniProt Q9H6K4),inactive: -0.097,inactive: -0.039,inactive: -0.012,inactive: 0.103,inactive: -0.013,inactive: 0.013,inactive: -0.005,inactive: 0.024,inactive: -0.015,inactive: -0.084,inactive: -0.038,inactive: 0.052,inactive: 0.036,inactive: 0.066,inactive: 0.081
OSTF1 (UniProt Q92882),inactive: -0.018,inactive: 0.008,inactive: -0.015,inactive: 0,inactive: 0.013,inactive: 0.003,inactive: 0.03,inactive: 0.022,inactive: 0.024,inactive: 0.021,inactive: -0.01,inactive: -0.013,inactive: 0.006,inactive: -0.01,inactive: -0.003
NUP42 (UniProt O15504),inactive: -0.031,inactive: -0.027,inactive: 0,inactive: -0.02,inactive: 0.031,inactive: -0.056,inactive: 0.021,inactive: 0.021,inactive: 0.002,inactive: 0.012,inactive: 0.133,inactive: 0.087,inactive: -0.209,inactive: 0.031,inactive: -0.057
P4HB (UniProt P07237),inactive: -0.017,inactive: 0.007,inactive: 0.033,inactive: 0,inactive: 0.016,inactive: 0.103,inactive: 0.016,inactive: -0.026,inactive: -0.009,inactive: 0.023,inactive: 0.001,inactive: 0.102,inactive: 0.013,inactive: -0.019,inactive: 0.018

# Random excerpt: 2 records from the list.
Target,log2 fold change [1],log2 fold change [2],log2 fold change [3],log2 fold change [4],log2 fold change [5],log2 fold change [6],log2 fold change [7],log2 fold change [8],log2 fold change [9],log2 fold change [10],log2 fold change [11],log2 fold change [12],log2 fold change [13],log2 fold change [14],log2 fold change [15]
PARK7 (UniProt Q99497),inactive: 0.043,inactive: -0.004,inactive: -0.007,inactive: 0.051,inactive: -0.008,inactive: 0.009,inactive: 0.018,inactive: -0.016,inactive: -0.008,inactive: 0.005,inactive: 0.022,inactive: 0.163,inactive: -0.01,inactive: 0.026,inactive: 0.005
PALMD (UniProt Q9NP74),inactive: -0.036,inactive: 0.061,inactive: 0.013,inactive: -0.037,inactive: 0.051,inactive: 0.016,inactive: -0.128,inactive: -0.013,inactive: 0,inactive: 0.084,inactive: 0.018,inactive: 0.193,inactive: 0.003,inactive: -0.009,inactive: -0.302
